For experiment [1], the target named is T1, NF-L^4A-myc-6xHis (all four head-domain glycosites changed to alanine) (human) (UniProt P07196).
T1 sequence: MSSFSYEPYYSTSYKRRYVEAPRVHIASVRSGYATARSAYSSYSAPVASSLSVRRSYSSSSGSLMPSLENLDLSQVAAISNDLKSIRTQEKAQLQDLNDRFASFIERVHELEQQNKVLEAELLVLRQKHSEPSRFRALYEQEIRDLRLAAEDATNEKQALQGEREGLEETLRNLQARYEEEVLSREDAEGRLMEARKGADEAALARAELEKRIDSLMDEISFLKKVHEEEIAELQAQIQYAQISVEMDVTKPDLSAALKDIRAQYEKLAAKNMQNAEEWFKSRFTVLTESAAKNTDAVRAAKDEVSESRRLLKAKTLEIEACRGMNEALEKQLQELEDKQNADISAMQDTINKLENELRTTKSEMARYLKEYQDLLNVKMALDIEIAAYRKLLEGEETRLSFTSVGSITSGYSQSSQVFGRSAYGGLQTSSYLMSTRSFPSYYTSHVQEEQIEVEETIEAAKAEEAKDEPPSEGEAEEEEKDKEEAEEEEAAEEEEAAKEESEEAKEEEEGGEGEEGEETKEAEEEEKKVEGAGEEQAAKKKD
The experiment can be described thus: co-IP; NEFL-/- 293T cells transfected 48 h with NF-L-myc-6xHis (WT, 4A or 5A) ± INA ± OGT-3xFLAG; myc IP, IB with INA antibody; lysis buffer 20 mM Tris-HCl pH 7.4, 1% Triton X-100, 0.1% SDS, 150 mM NaCl, 1 mM EDTA; 4 °C.

In experiment [2] the target is T2, NF-L^5A-myc-6xHis (compound mutant lacking the four head and one tail domain glycosites) (human) (UniProt P07196).
T2 sequence: T1 sequence with S431A
The description is as above.

Positions count from the first letter of the chain named. No constants are given. Whether binding was seen depends on the method and setting. Binding seen in cells or lysates may run through a third protein. Some results given as binding are weak or reduced against the parent protein; the word gives no strength. Tags and fused reporters may be left off the sequences shown.

B1: α-internexin (INA), transfected (protein, UniProt Q16352 1-499)
chain: MSFGSEHYLCSSSSYRKVFGDGSRLSARLSGAGGAGGFRSQSLSRSNVASSAACSSASSLGLGLAYRRPPASDGLDLSQAAARTNEYKIIRTNEKEQLQGLNDRFAVFIEKVHQLETQNRALEAELAALRQRHAEPSRVGELFQRELRDLRAQLEEASSARSQALLERDGLAEEVQRLRARCEEESRGREGAERALKAQQRDVDGATLARLDLEKKVESLLDELAFVRQVHDEEVAELLATLQASSQAAAEVDVTVAKPDLTSALREIRAQYESLAAKNLQSAEEWYKSKFANLNEQAARSTEAIRASREEIHEYRRQLQARTIEIEGLRGANESLERQILELEERHSAEVAGYQDSIGQLENDLRNTKSEMARHLREYQDLLNVKMALDIEIAAYRKLLEGEETRFSTSGLSISGLNPLPNPSYLLPPRILSATTSKVSSTGLSLKKEEEEEEASKVASKKTSQIGESFEEILEETVISTKKTEKSNIEETTISSQKI
For the molecule B1, the binding result in experiment [1] and in experiment [2] was “binds” throughout.
